Key:
[1] = cited from earlier work
[2] = Quantitation of endogenous LNO2 in human red cells and plasma by HPLC ESI MS/MS

O=NO [NO2^−, nitrite]
Concentration in plasma ([1]; human blood, literature refs 35, 36): 205 ± 21 nM

10-nitro-9,12-octadecadienoic acid and 12-nitro-9,12-octadecadienoic acid [LNO2]
share of LNO2 that is esterified ([1]; blood / tissue compartments): ~80% | Net blood level of esterified LNO2 ([1]; healthy humans (ref 9)): ~550 nM | Net blood level of free LNO2 ([1]; healthy humans (ref 9)): ~80 nM | LNO2 concentration in blood of healthy individuals ([1]; red cells and plasma): ~500 nM | [LNO2], whole blood, total ([1]; values obtained from ref. 9, assuming a 40% hematocrit): 477 ± 128 nM | [LNO2], packed red cells, esterified ([1]; values obtained from ref. 9): 199 ± 121 nM | [LNO2], packed red cells, free ([1]; values obtained from ref. 9): 50 ± 17 nM | [LNO2], packed red cells, total ([1]; values obtained from ref. 9): 249 ± 104 nM | [LNO2], plasma, esterified ([1]; values obtained from ref. 9): 550 ± 275 nM | [LNO2], plasma, free ([1]; values obtained from ref. 9): 79 ± 35 nM | [LNO2], plasma, total ([1]; values obtained from ref. 9): 630 ± 240 nM | free LNO2 as share of total in plasma [2]: 85% | LNO2 concentration, packed red cells, free ([2]; healthy human volunteers, n = 10): 25 ± 8 nM

Reference: patent US9867795B2, “Nitrated lipids and methods of making and using thereof” (The UAB Research Foundation, priority 2004, dated 2018)
